According to the supplement of paper PMC5949888:
Most values lie at the floor of the assay. Slopes are relative: functional sequences can read slightly below zero.

test system: Saccharomyces cerevisiae PS128 hsf1 delta, HSF1(1-493) fusion; assay: growth estimate (transactivation domain function in HSF1 fusion, heat-shock survival) (a.u. (slope of normalised read count over time)); higher = stronger growth at 37°C, i.e. more transactivation activity; conditions: library: random library
Procedure: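 Random 60-nt DNA library encoding peptides of up to 20 aa, fused to the C-terminus of yeast HSF1 residues 1-493 (C-terminal TAD deleted) and expressed from the native HSF1 promoter on a CEN plasmid in hsf1-deleted S. cerevisiae PS128. Cells were selected at 37°C on -trp 5-FOA plates for 0, 2, 4, 6 and 8 days and amplicons were sequenced. Growth estimate is the slope of a robust linear fit of total-sum-normalised read counts (normalised to the first time point) over time, using at least 2 replicates. Sequences are classed functional (TAD activity) above a threshold of -0.13, set from stop-codon control sequences.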

Substance | growth estimate
AHAVGCEACAQWVDRDWTAS | < -0.25
AHCGRSWLESATQFEKSYGP | < -0.25
AHEC | < -0.25
AHETATAGNRELSRDYN | < -0.25
AHFGRFITSVPWIV | < -0.25
AHGHCSSGLAVRPAYGKEAP | < -0.25
AHHQGGAGQNCVGSGCSAIR | -0.237
AHLKSYRRVLDR | -0.248
AHNTSSRELNCANWREQVFG | -0.246
AHP | < -0.25
AHPSASRTCQVLRNDATAWR | < -0.25
AHSNFPGFQLGRAWINA | < -0.25
AHSTATPELNLRGTVISISY | < -0.25
AHSVPPVSLAAGIRGTMRPL | < -0.25
AHTLRTMPGRTVEPPAWVRC | < -0.25
AHTRHV | -0.237
AHTRVDSVVGMPRF | < -0.25
AHTSSGGTG | < -0.25
AHVEAGAFVVGASKICYLAP | < -0.25
AHWCGPCRARTPTRPARSYD | < -0.25
AHYGSNNHVRYNKLSRASQW | < -0.25
AIAVRSAHALGSPIRIHARL | < -0.25
AICKSHGQYNTYSRQMLLRS | < -0.25
AICSHLWEQLTKPRVSGEPP | < -0.25

Substance | growth estimate
AICTGNCFCRCDSC | -0.243
AIDEVLRMTRCSPSP | < -0.25
AIED | < -0.25
AIFAPRILSFGLWPQANHTK | < -0.25
AIGDQERIISR | < -0.25
AIGSWCGHYHTNTVCAVHVH | < -0.25
AIIAVTELVLVEATLESIRM | -0.248
AIIRRSSVHDYVMLLLGPT | < -0.25
AIITRGGIGG | < -0.25
AIKPLSSTSPFWLRRGHQPA | < -0.25
AIKYKTRDRNLLKPPGSHLT | < -0.25
AILFKTADSKPSVSPKCYRP | < -0.25
AILNRCRVWWLLRGQMSSFS | < -0.25
AIMARRSR | -0.228
AIMPGRLEYTNSMG | < -0.25
AINGCASIVSPCTHRVRVIT | < -0.25
AIPKPGLFKDLIPNDGYFRT | < -0.25
AIPTRCRGRYLASIVTSNLK | < -0.25
AIRCFKLGYCRQP | < -0.25
AIRCLENRNFSGVIMLEFLV | < -0.25
AIRGGHLRLMRCQDQLNHCR | < -0.25
AIRLIRANTKLLV | < -0.25
AIRLLATESFPESNTFETAL | < -0.25
AISLNVVRHYVTSRAG | < -0.25

Substance | growth estimate
AISVGRFRRLSPIALQAWPP | < -0.25
AISYTDANKPLSHGVRVFCA | < -0.25
AITGKYPLRKHP | < -0.25
AITKNFGGFITCRYWSLRRL | < -0.25
AIVCD | < -0.25
AIVFESP | < -0.25
AKAGQICFLV | < -0.25
AKALRPKMIPYERDRKLLSA | < -0.25
AKDELVRLSC | < -0.25
AKDTETKRKEHMSCAWVLPT | < -0.25
AKELKPSSFLTYWNGGKFRR | < -0.25
AKHIKLNVFNEIWGQRVVK | < -0.25
AKIINSRRVIGLLRAQGSLA | < -0.25
AKKRSMAAPSRFNSRAMLHA | < -0.25
AKLAF | < -0.25
AKLKLTLQR | < -0.25
AKLLTCCKGVSRLNSILALL | < -0.25
AKLWIVPALRLRGSAGDTPR | < -0.25
AKNT | -0.246
AKPTARANTRG | < -0.25
AKSDVDSLYGRCKMGQWIDL | < -0.25
AKTNG | < -0.25
AKVGQMFGVSVGRSYGDVEW | < -0.25
AKWRGSPRHLDEDGGLEVKR | < -0.25

Substance | growth estimate
AKYPGGRSDPGLLPAWSFAF | -0.237
AKYSHSRRRHLLARASCG | < -0.25
ALAGGQV | < -0.25
ALAHPSLCRVSLVVFMPPE | < -0.25
ALC | < -0.25
ALCCQEGHGQRC | < -0.25
ALCPLSENRSGGYLGLTSSP | < -0.25
ALCVPKINDMRKGCPGSASD | < -0.25
ALDRRRDECAFAC | < -0.25
ALEENDRPTLLNRSKT | < -0.25
ALEQVRQ | < -0.25
ALFGRAGQGSRSARC | < -0.25
ALFGRNGKGLH | < -0.25
ALFVSA | < -0.25
ALGCFCAVGVWHHIT | -0.248
ALGMGGVKPGNGHINVDLAH | < -0.25
ALGVNPERSHHRLDSRASLR | < -0.25
ALIQGIVSGGMRKILFDVMR | < -0.25
ALKA | -0.243
ALKLGSLSWALHGQYTDLRS | -0.0257
ALLMGGVYERWVTYVCQLTP | -0.235
ALLVEYYREFLGKHS | < -0.25
ALNIQPAGSYETVILENSSS | < -0.25
ALNTAVGM | < -0.25

Substance | growth estimate
ALNVFSTVASGLHSMRRIFE | -0.218
ALPMRVPEDRAVCNGQVPSK | < -0.25
ALPRGVARTCLSTPADAAQQ | < -0.25
ALPVPRAMPHHFFVSCVV | < -0.25
ALQ | < -0.25
ALQDRSSVQLPHA | -0.246
ALRQTLS | < -0.25
ALRR | < -0.25
ALRV | < -0.25
ALSNLIVFRRSGVSASINY | < -0.25
ALSYLKVSGQAYILYRMYLA | < -0.25
ALVCSMHLLRGGPLRWGPS | < -0.25
ALVGVEQVD | < -0.25
ALVHAELIRRTFNQAGKKD | < -0.25
ALVITIEPGRAGARK | < -0.25
ALVPRR | < -0.25
ALYLRTPSVLEAPGRARGVS | < -0.253
AMCDFDYCIRWNALNVHLVK | < -0.25
AMDMRSTIYNLILTVASCKC | < -0.25
AMFMEKFYRGL | < -0.25
AMGIRSHWTMGNTVMDLLTL | < -0.25
AMISG | < -0.25
AMRR | < -0.25
AMSEAA | < -0.25

Substance | growth estimate
AMSG | < -0.25
AMSVFERNDSYIFLAQSAMH | < -0.25
AMTGSSRLVIHR | < -0.25
AMVRAEPRRPIRGRFPQVWS | < -0.25
ANARDGTRGEQSCPRWFMWN | < -0.25
ANASRSKRDNYVRTSLRTFV | < -0.25
ANDERILAWLWKSSSRERSR | < -0.25
ANEIVRTYVIDTLLDRS | -0.245
ANELVSSGCRFM | < -0.25
ANGGADRRLHKQISGD | < -0.25
ANGRSYQGLFQVALLF | < -0.25
ANGVPVGRLSIKFLPIRVCA | < -0.25
ANIVSDSLVSSSPSNTILSD | < -0.25
ANLALLGEGEIWSIFSWQR | -0.0944
ANPH | < -0.25
ANQVVALQ | < -0.25
ANRDFSGHSILFGPQQGPDP | < -0.25
ANRFISSY | < -0.25
ANRQPQLRD | < -0.25
ANRSLYLLKSLLTARVEWCP | < -0.25
ANRVRHTLVPVSR | < -0.25
ANSIGAQKSTAFGWEQWRTD | < -0.25

Shown in markdown: part of the list above

| Substance | growth estimate |
| --- | --- |
| AMSG | < -0.25 |
| AMTGSSRLVIHR | < -0.25 |
| ANIVSDSLVSSSPSNTILSD | < -0.25 |
| ANQVVALQ | < -0.25 |
| ANRVRHTLVPVSR | < -0.25 |

4 entries picked at random from those above:
Substance | growth estimate
ANARDGTRGEQSCPRWFMWN | < -0.25
ANRVRHTLVPVSR | < -0.25
ANRDFSGHSILFGPQQGPDP | < -0.25
ANRSLYLLKSLLTARVEWCP | < -0.25
